Results on 31 compounds are retold here after PubChem BioAssay AID493014 (National Center for Advancing Translational Sciences (NCATS), 2011).

This is one part of the list. The main result of the screen is listed elsewhere. These columns were measured beside it and carry no call. Most of these compounds were active or inconclusive in the main read-out, so they are no random draw. The note in brackets gives the kind of curve behind each potency; many fits are weak.

The nature of this assay: qHTS Assay to Find Inhibitors of Chronic Active B-Cell Receptor Signaling. The conditions noted are these: ABC-DLBCL IkBa-CBG/CBR reporter, luminescence ratio (green luciferase fused to IkBa over red control in TMD8 lymphoma cells), 4 h. An excerpt: NIH Molecular Libraries Probe Production Network [MLPCN] NIH Chemical Genomics Center [NCGC] MLPCN Grant: 1 R03 DA031086-01A1 PI Name: Dr. R. Eric Davis NCGC Assay Overview: Diffuse large B-cell lymphoma (DLBCL) is the most common category of non-Hodgkin lymphoma, with ~20,000 new cases per year in the United States. DLBCL should be regarded as a collection of different neoplasms. Microarray gene expression analysis has defined two principal types of DLBCL, named for their similarity to normal B cell stages or activation states: a germinal center B-cell (GCB) type, and an activated B-cell (ABC) type. In ABC-DLBCL, a constitutive high-level activity of the NF-kappaB family of transcription factors has been observed (1) and NF-kappaB target genes are more highly expressed in ABC primary tumors than in GCB tumors. Functional studies have shown a constitutive high-level activity of the IkappaB (inhibitor of kappa-B) kinase (IKK) complex. […] Further analysis of DLBCL primary tumors for NF-kappaB target gene expression imply that although CARD11 is required for constitutive IKK activity in all ABC-DLBCL lines, mutations in CARD11 may be the root cause of IKK activation only in lines or tumors with such mutations. In other words, CARD11 mutations may explain NF-kappaB activation in only 10% of ABC-DLBCL cases. […] This process has been termed 'chronic active BCR signaling' (CABS). The goal of this screen is to find small-molecule inhibitors of the CABS pathway found in ABC-DLBCL lines using a cell-based assay that measures IkappaBalpa stability, which has already been extensively validated in the OCI-Ly3 line (PubChem AID:445; REF: 4). […] The assay uses green (CBG68) and red (CBR) emitting beetle luciferases [Chroma-GloTM developed by Promega Corp.] where the green luciferase is fused to IkappaBalpha and the red luciferase is present in its native state. Both luciferase genes are stably present in the TMD8 human ABC DLBCL cell line, but their expression is under the control of tetracycline-inducible promoters. Following the addition of doxycycline to induce expression of the luciferases, the green luminescence in control cultures rises only slowly because the CBG fusion partner IkappaBalpha is targeted by IKK activity for rapid degradation. In contrast, green luminescence rises rapidly in the presence of proteasome inhibitors or IKK inhibitors. The rise in red luminescence of CBR is not affected by proteasome or IKK inhibitors, and serves as normalization for cell number and nonspecific effects. Compounds were screened as a concentration-titration series that ranged from 46 uM to 3 nM.
NCGC Assay Protocol Summary: Cells were seeded in 1536-well plates at 5000 cells/4uL in IMDM medium containing 0.5% FBS, w/o phenol red, 1% penicillin/streptomycin. Then, 23 nL of compounds or DMSO were delivered to each well using a pin tool. One uL 20ng/ml doxycycline was then dispensed into white solid 1536-well plates and the plates were incubated at 37C/5% C02 in a cell incubator for 4 hrs. Then 4 uL luminescent substrate mix (in-house prepared: 150 mM Tris-Cl, pH 7.6, 3 mM MgCl2, 1% Triton X-100, 5 mM DTT, 0.2 mM CoA, 0.15 mM ATP, 5 mM D-luciferin, final concentrations) was added to each well. The plate was incubated at r.t. for 10-15 min. The plates were measured on a ViewLux plate reader for green luminescence (540/20 nm filter) and red luminescence (618/8 nm filter). The green and red luminescent signals were corrected for red and green luminescence filter overlap using previously determined filter calibration constants (determined using the procedure outlined in the Promega Technical Manual; REF 4). The %Activity was determined from the ratio of corrected green/red luminescent values. MG132 were used as control. […] Red luminescent %Activity was normalized to the difference between red luminesence in basal cells (0%Activity) and zero luminescence (-100% Activity). […]
In general terms: In qHTS, concentration-response curves come from the screen itself.

Setting [1] is: measured here: CBR red luminescence, cell number.
The mark [2] stands for this setting: measured here: IkBa-CBG green luminescence.

For `CON(c1nc(Cl)nc(N(C)C)n1)S(=O)(=O)c1ccccc1Cl`, the AC50 under setting [1] is 35.5 µM [falling, single point]. Turning to `COc1ccc([N+](=O)[O-])cc1N(CC(O)Cn1nnc2ccccc21)S(=O)(=O)c1ccc(C)cc1` (stereo not drawn), the AC50 under setting [1] was 35.5 µM [falling, single point]. In the case of `CCn1c(Cc2ccccc2)nnc1SCC(=O)Nc1nccs1`, the AC50 under setting [1] was 7.31 µM [falling, full curve]. For `COC(=O)c1ccccc1SC1CC(=O)N(c2cccc(C)c2)C1=O` (stereo not drawn), under setting [1], the AC50 was 23.1 µM [falling, single point].

As to `COc1cc(C(=O)NNC2=CC(=O)CC(C)(C)C2)cc(OC)c1OC`, the AC50 is, setting by setting: under setting [1], 29.1 µM [rising, single point]; under setting [2], 20.6 µM [falling, single point].

Regarding `COc1ccc(/C=N/c2nc3ccccc3n2CCN2CCCCC2)cc1OC`, the concentration at half-maximal activity (AC50) under setting [1] is 13 µM [rising, partial curve, poor fit]. Same read-out and setting: then `CC(C)C[C@H]1CN=C(Nc2ccccc2)N1CCCC1CCCC1`, with 35.5 µM [falling, single point].

Turning to `CN(C)Cc1c(-c2ccc(Cl)cc2)nc2ccccn12`, the half-maximal activity concentration (AC50) under setting [1] was 5.62 µM [rising, single point].

For the compound `COC(=O)COc1cc2ccccc2cc1C(=O)Nc1ccccc1`, the AC50 under setting [1] is 1.78 µM [rising, partial curve, poor fit]. For `C=CCNC(=O)NC(=O)Cn1c(=O)c2c(ncn2CC)n(Cc2ccccc2)c1=O`, under setting [1], the AC50 is 15.8 µM [rising, single point]. Take `Cc1nnc(NC(=O)c2ccc3ccccc3n2)s1`: the AC50 under setting [1] was 35.5 µM [falling, single point] and the concentration at half-maximal activity (AC50) under setting [2] was 15.8 µM [falling, partial curve, poor fit]. `O=C(Nc1nc(-c2ccccn2)cs1)C1CCCC1`: the AC50 under setting [1] is 11.2 µM [falling, partial curve].

For `CCOC(=O)C1=C(C)NC2=C(C(=O)CC(C)(C)C2)C1c1ccsc1` (stereo not drawn), the half-maximal activity concentration (AC50) under setting [1] was 0.731 µM [falling, partial curve, poor fit].

Consider `CC(C)c1ccc(-c2csc(NC(=O)c3cccs3)c2C(=O)O)cc1`, for which, under setting [1], the concentration at half-maximal activity (AC50) is 14.1 µM [falling, single point]. For the compound `NC(=O)c1ccccc1NC(=O)Nc1cccc2ccccc12`, under setting [1], the AC50 was 1.58 µM [falling, full curve].

`CN(C)c1ccc(/C=N/OC(=O)Nc2ccccc2)cc1`: the AC50 under setting [1] was 7.08 µM [falling, partial curve]. For `Cc1cc(C)cc(N(CC(=O)Nc2cccc(C)n2)S(=O)(=O)c2c(C)noc2C)c1`, the AC50 under setting [1] is 20.6 µM [falling, single point]. The same measure, in the same setting: then `CC1CCN(c2nc3c(c(=O)[nH]c(=O)n3C)n2Cc2ccccc2)CC1`, with 23.1 µM [falling, partial curve, poor fit]. Consider `Clc1cccc(-c2nnc(SCc3nc4ccccc4[nH]3)n2Cc2ccco2)c1`, for which the AC50 under setting [1] was 22.4 µM [falling, single point]. With `COc1ccc(-c2cc(=O)n(-c3ccc([N+](=O)[O-])cc3)[nH]2)cc1`, under setting [1], the concentration at half-maximal activity (AC50) is 0.517 µM [rising, full curve]. On to `COc1ccc(NC(=O)NCc2ccco2)c(OC)c1`, for which the AC50 under setting [1] was 35.5 µM [falling, single point]. As to `Fc1ccc(NC(=S)N2CCCN(c3ccc(C(F)(F)F)cn3)CC2)c(F)c1`, the half-maximal activity concentration (AC50) under setting [1] was 12.6 µM [falling, partial curve, poor fit]. As for `O=C(CCC1CCCCC1)Nc1ccccc1O`, the half-maximal activity concentration (AC50) under setting [1] is 2.31 µM [falling, full curve, poor fit]. Same read-out and setting: for `Cc1cc(C(=O)N/N=C/C=C/c2ccccc2[N+](=O)[O-])c(C)o1` the value was 14.1 µM [falling, single point]. As for `Cc1ccc(SCc2nc(-c3ccccn3)no2)cc1`, the AC50 under setting [1] was 32.6 µM [falling, single point]. In the case of `CCCNC(=O)c1ccc(S(=O)(=O)c2ccc(OC)cc2)c([N+](=O)[O-])c1`, the AC50 under setting [1] was 0.562 µM [falling, full curve, poor fit]. As for `Cc1cccn2c(=O)nc(SCC(=O)N3CCCCC3)nc12`, the AC50 under setting [1] is 3.26 µM [rising, partial curve, poor fit]. Turning to `CCCc1c(C(=O)Nc2ccc(C(F)(F)F)cc2)cnn1-c1ccccc1`, the AC50 under setting [1] is 7.94 µM [rising, partial curve]. Take `O=C1CSCC(=O)N1Cc1ccc(Cl)c(Cl)c1`: the concentration at half-maximal activity (AC50) under setting [1] is 20 µM [rising, single point]. Consider `COCCn1c(SCC(=O)Nc2ccc3[nH]c(=O)[nH]c3c2)nc2ccccc2c1=O`, for which the AC50 under setting [1] was 22.4 µM [falling, single point]. On the same count and under the same terms, then `CC(=O)N/C(=C\c1cccc([N+](=O)[O-])c1)C(=O)NC1CCCCC1`, with 11.6 µM [rising, partial curve, poor fit].

The term AC50 denotes the concentration giving half of the maximal activity seen.
